Patent publication EP0103895A2, “Novel hydroxylamine derivatives, production and use thereof” (MEIJI SEIKA KABUSHIKI KAISHA, priority 1982, dated 1984)
Several values for one entry are separate records, joined by “and”; a condition that tells them apart may be missing. Equal values may be shown once. At least one read-out could not be matched to a standard name with certainty.

Columns and labels:
[1] = tested on: fowl roundworm (Ascaridia galli); test: Anthelmintic test in chickens artificially infected with fowl roundworm, single oral dose in gelatin capsule, worm bodies counted within 48 hours (Test Examples A1, B1, C1, D1); type: in vivo; conditions: chicken, chickens No.1-3
Procedure: Chickens infected artificially with fowl roundworm (Ascaridia galli) were employed in groups each consisting of three chickens. Fecal matter testing was conducted before administration of medicine to confirm infection with the worm. The quantity of the compound provided for testing was 10 mg and 20 mg per Kg of body weight, which was orally administered each in a gelatin capsule to the chicken. The number of worm bodies discharged within 48 hours after administration of medicine was counted, the chicken was killed after 48 hours and the number of worm bodies remaining in the enteron was counted to determine the anthelmintic percentage, wherefrom the antihelmintic effect was judged.
The same as that in Test Example Al.
The same as that in Test Example Al except that the compound provided for testing was in quantities of 30 mg and 50 mg per Kg of body weight, which were orally administered to the chickens in gelatin capsules.
The same as that in Test Example Al, except that the compounds provided for testing were used in quantities of 15 mg and 30 mg per Kg of body weight, which were orally administered each in a gelatin capsule to the chicken.

[2] = tested on: fowl roundworm (As. galli); test: Anthelmintic test in chickens artificially infected with fowl roundworm, compound added to feed, E.P.G. and worm count up to 21st day (Test Examples A2, B2, C2, D2); type: in vivo, Ascaridia galli; conditions: chicken
Procedure: Chickens artificially infected with fowl roundworm (As. galli) were employed in groups each of two chickens.
Fecal matter testing was conducted before initiation of the test and on the 7th, 14th and 21st day after initiation of the test. Reduction in worm egg number was examined by calculating E.P.G. (worm eggs per 1 g of fecal matter), and the number of discharged worm bodies and the number of worm bodies remaining in the enteron when the chicken was killed on 21st day were counted to determine the anthelmintic percentage, from which the anthelmintic effect was judged.

[3] = 30 mg/Kg oral in gelatin capsule

Structure (SMILES)	Anthelmintic effect after 48 hours [1, 3]	Change of E.P.G. 7th day ([2]; 25 ppm in feed)	Anthelmintic effect ([2]; 50 ppm in feed)	Change of E.P.G. 21st day ([2]; 50 ppm in feed)	Anthelmintic effect after 48 hours ([1]; 15 mg/Kg oral in gelatin capsule)
C#CCONCC=C [Compound D6]	+++ (100%)	4,200 and 2,100	+++ (100%)	0	–
C#CCNOCC=C.Cl [Compound D14, N-propargyl-O-allylhydroxylamine hydrochloride]	+++ (100%)	–	–	0	++ (80 - 90%)
